US20260085073A1, “PYRAZOLYLCARBOXAMIDE COMPOUNDS AND THEIR USE IN THERAPY” (Hotspot Therapeutics, Inc., priority 2022, published 2026)
Structures were worked out from names or drawings and are uncertain.

Protein sequences, listed by entry. Tags and fused reporters are not part of them.
UniProt Q9UDY8, whole entry: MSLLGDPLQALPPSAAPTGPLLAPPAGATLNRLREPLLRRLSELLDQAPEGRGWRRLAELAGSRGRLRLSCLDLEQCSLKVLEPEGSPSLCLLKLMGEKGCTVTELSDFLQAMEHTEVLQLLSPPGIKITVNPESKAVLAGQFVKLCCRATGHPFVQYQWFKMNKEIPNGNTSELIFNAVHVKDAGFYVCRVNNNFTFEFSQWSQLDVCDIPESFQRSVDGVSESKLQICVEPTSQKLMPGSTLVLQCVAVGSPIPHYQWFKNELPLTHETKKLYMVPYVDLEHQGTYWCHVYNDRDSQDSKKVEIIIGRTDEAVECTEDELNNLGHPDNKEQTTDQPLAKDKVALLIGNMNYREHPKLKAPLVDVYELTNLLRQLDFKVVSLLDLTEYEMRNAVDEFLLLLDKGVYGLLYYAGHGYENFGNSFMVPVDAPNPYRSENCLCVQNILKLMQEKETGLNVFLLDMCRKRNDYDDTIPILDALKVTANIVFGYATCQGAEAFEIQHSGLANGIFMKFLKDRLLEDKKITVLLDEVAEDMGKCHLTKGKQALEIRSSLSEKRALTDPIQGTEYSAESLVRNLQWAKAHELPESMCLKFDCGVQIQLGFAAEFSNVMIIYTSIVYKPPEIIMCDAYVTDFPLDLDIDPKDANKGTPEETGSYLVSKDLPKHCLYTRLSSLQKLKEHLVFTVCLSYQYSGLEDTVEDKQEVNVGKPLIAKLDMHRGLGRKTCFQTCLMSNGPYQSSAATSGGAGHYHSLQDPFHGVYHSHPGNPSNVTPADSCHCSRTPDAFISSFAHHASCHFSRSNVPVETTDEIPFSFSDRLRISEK

Biological target: MALT1 (Homo sapiens, UniProt Q9UDY8)
Assay: MALT1 inhibition assay (MALT-1 Fluorogenic Peptide Cleavage Assay, Ac-LRSR-AMC substrate)
Settings: read-out: MALT1 IC50, Avi-tagged FL MALT-1, 30 min pre-incubation, 90 min reaction at room temperature, fluorescence intensity
Procedure: Example 71—MALT1 Inhibition Assay
Compounds were tested for ability to bind to MALT1.
Inhibition of MALT1 activity by the presence of small molecules was evaluated using MALT-1 Fluorogenic Peptide Cleavage Assay. The assay utilizes a quenched AMC-labelled peptide that contains the MALT-1 recognition sequence and cleavage site (LRSR). MALT-1 mediated cleavage of the peptide relieves the quenching and leads to an increase in fluorescence at excitation (342 nm) and emission (441 nm). […]
Compounds were plated to provide a 2% DMSO final concentration using a ProxiPlate-384 Plus F Black 384-shallow well microplate. The assay-ready plates were equilibrated to room temperature. […]
Fluorescence intensity was determined using a CLARIOstar microplate reader (BMG LABTECH) using the optimised AMC mode. Before taking readings, a 70% gain was applied on the neutral control well. […]

Cn1nc(-c2ccncc2Cl)c(C(F)(F)F)c1C(=O)Nc1ccnc(C(F)(F)F)c1
IC50: < 500 nM
